Test results taken from PubChem BioAssay AID652054 (National Center for Advancing Translational Sciences (NCATS), 2013).
Among all 360,000 compounds or so, about 9,100 (2.5%) were called active. The shares of active, inactive and inconclusive entries below differ from those in the screen. No stated cut-off is given here; in the data, active means max response below about -50%; inconclusive means no clear call, values can overlap the other calls; inactive means above that.

The chains behind the UniProt entries cited, without tags or fusion partners.
UniProt P35462, whole entry, looked up: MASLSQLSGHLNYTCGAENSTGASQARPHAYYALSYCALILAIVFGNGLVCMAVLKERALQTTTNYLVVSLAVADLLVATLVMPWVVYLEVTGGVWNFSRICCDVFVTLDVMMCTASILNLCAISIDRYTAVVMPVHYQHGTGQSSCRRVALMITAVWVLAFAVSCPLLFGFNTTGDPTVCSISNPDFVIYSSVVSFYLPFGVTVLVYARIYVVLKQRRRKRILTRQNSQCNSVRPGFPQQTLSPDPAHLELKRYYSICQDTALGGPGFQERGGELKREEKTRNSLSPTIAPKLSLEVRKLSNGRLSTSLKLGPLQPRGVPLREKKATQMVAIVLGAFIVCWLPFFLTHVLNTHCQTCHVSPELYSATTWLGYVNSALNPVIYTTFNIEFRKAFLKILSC

molecular target: D(3) dopamine receptor (Homo sapiens) (UniProt P35462); test: qHTS of D3 Dopamine Receptor Antagonist: qHTS; conditions: D3R cells, DiscoveRx beta-arrestin luminescence, antagonist mode; stronger effect = lower value
In short: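 Cells expressing the human receptor were seeded at 1500 cells/well, incubated overnight at 37 degrees C in 5% CO2, then exposed to library compounds with dopamine controls for 90 minutes at 37 degrees C before luminescent detection.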
On the % scale 0 is the no-effect control and ±100 the full control effect.

Max response, negative = inhibition, active:
CCCC[C@@H]1CNCCN1CCc1cccc2ccccc12 -53.3%
COc1ccccc1N1CCN(CCCNc2cc(=O)n(C)c(=O)n2C)CC1 -62%
Cc1ccc(C(NC(=O)/C=C\c2ccc3c(c2)OCO3)C(=O)Nc2ccc3c(c2)OCO3)cc1 (stereo not drawn) -88.4%
Cc1c(Br)cc(C(=O)OC2CCN(C)CC2)c(C)c1C -88%
Cc1cc2c(cc1[N+](=O)[O-])NC(CNC(C)C)CC2 (stereo not drawn) -83.5%
COc1ccc(S(=O)(=O)N2CCCCC2c2cc(C(=O)N3CCOCC3)no2)cc1 (stereo not drawn) -96.4%
O=C(Nc1ccc(Nc2ccccc2)cc1)c1ccc(Cl)cc1[N+](=O)[O-] -65.7%
COc1cc(C(=O)N/N=C/c2ccc(OC)c(CN3CCN(c4ccc(F)cc4)CC3)c2)ccc1O -74.9%
Cc1ccc(NC(=S)N/N=C2/CCCCc3ccccc32)cc1 -51.9%
COc1ccc(C(=O)NCC(=O)NCC2COc3ccccc3O2)cc1 (stereo not drawn) -52.1%
CCCCn1nnnc1C(CCSC)N1CCN(C/C=C/c2ccccc2)CC1 (stereo not drawn) -122%
CC1(C)CC(=O)C2=C(C1)OC(N)=C(C#N)C2c1cccc(OC(=O)c2ccco2)c1 (stereo not drawn) -90.4%
C=CC(=O)N1C/C(=C/c2ccc(F)cc2)C(=O)/C(=C\c2ccc(F)cc2)C1 -61.2%
OCCC1CN(Cc2cc(F)ccc2F)CCN1CCCc1ccccc1 (stereo not drawn) -85.6%
FC(F)(F)Oc1ccccc1C(c1nnnn1Cc1ccccc1)N1CCN(C/C=C/c2ccccc2)CC1 (stereo not drawn) -65.6%
Cc1ccc(C(=O)Oc2ccc(Cl)c3cccnc23)cc1[N+](=O)[O-] -126%
O=C1C=CC(=O)N1CCNc1ncc(C(F)(F)F)cc1Cl -113%

Max response, negative = inhibition, inconclusive:
Cc1c(Cl)cccc1NC(=S)NCCc1ccc(Cl)cc1 -39.6%
CN1C[C@@H]2[C@@H]3C(=O)N(C)C(=O)[C@@H]3[C@](C)(C1=O)N2C(=O)c1ccc(Cl)c(Cl)c1 -47.1%
COc1ccc(CCNC(=O)C2CCN(c3nccc(C)n3)CC2)cc1 -31%
Cn1c(CO)c(-c2ccccc2)c2cc([N+](=O)[O-])ccc21 -30.2%
O=C(NCCSc1ccccc1)c1ccccc1Cl -34.6%
COC(=O)CCCC1=CC2=CC(=O)C(C)(OC(=O)c3cccs3)C(=O)C2=CN1c1ccc(OC)cc1 (stereo not drawn) -38.8%
COc1cccc(C2CC(c3cccc(Br)c3)n3nc(N)nc3N2)c1 (stereo not drawn) -30.8%
COc1ccc(C(=O)Oc2ccc(/C=N/NC(=O)c3ccccc3OC)cc2[N+](=O)[O-])cc1 -43.1%
CC(=O)Nc1cccc(-c2cnc(NC(C)=O)cn2)c1 -43.1%
CCCN1C2=NS(=O)(=O)CCN2c2ccccc21 -34.8%
Cc1nnc(N2CCC(C(=O)N3CCCCCC3)CC2)c2nn(-c3ccc(Cl)cc3)c(C)c12 -45.2%
O=C(NCCN1CCN(Cc2ccccc2)CC1)c1ccc(CS(=O)(=O)c2ccc(Br)cc2)o1 -33.4%
Cc1ccc(C(=O)c2coc3ccc(O)c(CN4CCN(C)CC4)c23)cc1 -41.4%
CC1CN(CCCCOc2ccc3ccccc3c2)CC(C)O1 (stereo not drawn) -41.2%
COCCNc1oc(/C=C/c2ccccc2OC)nc1S(=O)(=O)c1ccccc1 -30.6%
COc1ccc(CNC(=O)C[C@H]2C[C@H](C(=O)N3CCCCC3)[C@@]3(CCc4ccccc4)c4[nH]c5cc(-c6ccco6)ccc5c4CCN3C2=O)cc1OC -34.5%
O=C(Nc1ccccc1N1CCCC1)c1ccc(Cl)c(S(=O)(=O)N2CCOCC2)c1 -30.9%
CC(=O)c1cccc(NC(=S)NC(=O)c2cncc(Br)c2)c1 -37.1%
CCCOc1ccc(Cn2c(C)nc([N+](=O)[O-])c2SCC(O)COC)cc1[N+](=O)[O-] (stereo not drawn) -41.5%
O=C(CSc1nnc2c(n1)[nH]c1ccccc12)Nc1ccc2c(c1)OCO2 -30%
CC(C)(CNC(=O)c1cc2c(s1)CCCC2)N1CCOCC1 -35.9%
O=C(Nc1ccc(Cl)c(Cl)c1)C1CC(=O)N(c2ccc(Br)cc2)C1 (stereo not drawn) -36.3%
Cc1ccc(NS(=O)(=O)c2ccc3c(c2)n(C)c(=O)c(=O)n3C)c(C)c1 -34.3%
O=c1cc(-c2ccc(Cl)c(Cl)c2)[nH][nH]1 -44.9%
Cc1ccc(S(=O)(=O)N(CC(O)CN2CCCCC2)c2ccccc2)cc1 (stereo not drawn) -45.8%
O=C(c1ccco1)N1CCN(C(c2ccccc2Cl)c2nnnn2Cc2ccco2)CC1 (stereo not drawn) -44.6%
Brc1ccc(COc2ncnc3ccccc23)cc1 -43.9%
CN(NS(=O)(=O)c1ccc([N+](=O)[O-])cc1)c1ccccc1 -44%
COc1ccc(NC(=O)C(=O)N/N=C/c2cccnc2)c(OC)c1 -43.6%
O=C(O)c1cccc(S(=O)(=O)NNc2ccccc2C(F)(F)F)c1 -39.5%
COC(=O)c1c(Cl)c2n3ccccc3c(C)c(-c3ccccc3)c-2c1C(=O)OC -30.4%
CC1COc2ccccc2N1S(=O)(=O)c1ccc(Cl)cc1 (stereo not drawn) -39.5%
O=C(CN1CCOCC1)NCC12CC3CC(CC(C3)C1)C2 -33.4%
C/C(CC(=O)Nc1ccc(Cl)c(Cl)c1)=N\NC(N)=S -43.4%
CC1=Nn2c(nnc2-c2cc(-c3ccccc3)n[nH]2)SC1 -46.4%
N#CCc1c(C#N)c(N)nc(N2CCN(Cc3ccc4c(c3)OCO4)CC2)c1C#N -38%
COc1ccc(CNCc2cc3c(cc2[N+](=O)[O-])OCO3)cc1 -38.4%
CCN(CC)c1ncnc2c1ncn2Cc1c(Cl)cccc1Cl -49.5%
CC(C)CC(=O)NC(=S)Nc1sc2c(c1C(N)=O)CCC2 -38.4%
COc1ccc(C(c2nnnn2CS(=O)(=O)c2ccc(C)cc2)N2CCN(Cc3ccccc3)CC2)cc1 (stereo not drawn) -31.5%
Cc1ccc2nc(N(CCCN(C)C)C(=O)CN3C(=O)c4ccccc4C3=O)sc2c1 -41.8%
COc1ccc(N2CCN(C(C)C(=O)N3CCc4ccccc43)CC2)cc1 (stereo not drawn) -43.2%
Cc1cccc(C)c1-n1nnnc1C(CCc1ccccc1)N1CCN(C/C=C/c2ccccc2)CC1 (stereo not drawn) -45.6%
C/C(=N/NS(=O)(=O)c1ccccc1)c1ccc(Cl)cc1 -33.7%
CCn1c(SCc2ccc(F)cc2)nnc1-c1nn(-c2ccccc2)ccc1=O -41.9%
Cc1nc(SCC(=O)Nc2ccc(CN3CCCC3)cc2)c2c(C)c(C)sc2n1 -39.8%
O=C(N/N=C/c1coc2ccccc2c1=O)c1cn(-c2ccccc2)nc1-c1ccc(F)cc1 -39.9%
CSc1ccccc1NC(=S)Nc1cc(C)cc(C)c1 -32.8%
CCN1C(=O)c2cccc3c(S(=O)(=O)Nc4ccccc4)ccc1c23 -38.2%
CC1CCN(C(=O)c2ccc(CNc3c(N4CCCC4)c(=O)c3=O)cc2)CC1 -36.5%

For reference, some entries already given:
Max response, negative = inhibition, inconclusive:
COc1ccc(C(c2nnnn2CS(=O)(=O)c2ccc(C)cc2)N2CCN(Cc3ccccc3)CC2)cc1 (stereo not drawn) -31.5%
Cc1ccc2nc(N(CCCN(C)C)C(=O)CN3C(=O)c4ccccc4C3=O)sc2c1 -41.8%
COc1ccc(N2CCN(C(C)C(=O)N3CCc4ccccc43)CC2)cc1 (stereo not drawn) -43.2%
Cc1cccc(C)c1-n1nnnc1C(CCc1ccccc1)N1CCN(C/C=C/c2ccccc2)CC1 (stereo not drawn) -45.6%
C/C(=N/NS(=O)(=O)c1ccccc1)c1ccc(Cl)cc1 -33.7%
CCn1c(SCc2ccc(F)cc2)nnc1-c1nn(-c2ccccc2)ccc1=O -41.9%

Following part:

Max response, negative = inhibition, inactive:
O=c1oc2ccc3ccccc3c2cc1-c1nc2ccccc2o1 34.7%
COc1cc(/C=C/C(=O)O)ccc1OS(=O)(=O)c1c(C)cc(C)cc1C -4.33%
O=C(CNC(=O)c1cccc(Br)c1)N/N=C/c1cccs1 -12.6%
CCOC(=O)c1ccc2ncc(-c3ccccc3)nc2c1 7.23%
COC(=O)Cn1c2ccc(C)cc2c2nc(C)sc21 -14.2%
COc1cc(OC)c(-c2nc3cnccc3n2C)cc1OC 16.7%
O=C(C1CCOCC1)N1CCCC(N2CCN(c3ccc(F)cc3)CC2)C1 (stereo not drawn) 0.0318%
COc1cc(OC)cc(C(=O)NC(=S)NNC(=O)[C@H]2C[C@@H]2c2ccccc2)c1 12.8%
COc1ccc2c(c1)CCC/C2=N\Nc1nc(C(=O)NN)cs1 7.94%
O=C(O)C1=C(C2CCCCC2)C(=O)c2ccccc21 2.67%
CCCSc1nnc(-c2cnn(-c3ccccc3)c2-n2cccc2)n1C -13.2%
O=C(Oc1ccc(-c2cnc3ccccc3n2)cc1)c1cccc([N+](=O)[O-])c1 -8.37%
CCCn1c(SCC(=O)O)nc2ccccc21 -21.2%
CCOC(=O)c1[nH]c(=O)[nH]c1CSc1ccccn1 -8.3%
CC(=O)Nc1ccc(C(=O)COC(=O)C2CC3CCCC(C2)C3=O)cc1 (stereo not drawn) 0.216%
Cc1ccccc1-c1cccc(CN2CCN(C)C(CCO)C2)c1 (stereo not drawn) -9.02%
Cc1cn(C2CCCCC2)c(=O)[nH]c1=O -5.77%
COc1ccc(S(=O)(=O)N2CCCC(C(=O)Nc3ccc4c(c3)OCCO4)C2)cc1 (stereo not drawn) -2.97%
COc1cccc(Nc2nc(C)nc3c2oc2ccccc23)c1 15.3%
CC(C)CCOc1ccc(C2(C)NC(=O)NC2=O)cc1 (stereo not drawn) 3.88%
CC(C)CNC(=O)Nc1ccc(F)c(Cl)c1 -16.2%
